Data as given in patent US20130045962A1, “PEPTIDE DEFORMYLASE INHIBITORS” (priority 2007, published 2013).
pIC50: −log10 of the molar value. Some results were stated once for a whole list of compounds, not compound by compound. At least one structure is not confirmed: it was looked up by name or label, or the drawing left a doubt.

Protein sequences, listed by entry. Tags and fused reporters are not part of them. Lines headed by an entry give the natural chain unless they say otherwise; changes in a name come on top.
UniProt P44786: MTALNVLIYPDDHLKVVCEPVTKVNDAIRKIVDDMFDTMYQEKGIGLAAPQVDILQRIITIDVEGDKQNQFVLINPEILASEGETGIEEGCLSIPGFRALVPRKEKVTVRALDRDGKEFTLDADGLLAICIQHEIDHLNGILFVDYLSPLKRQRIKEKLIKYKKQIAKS

Target: Haemophilus influenzae PDF (Haemophilus influenzae, UniProt P44786)
Test: PDF IC50 assay (FDH-coupled), H. influenzae PDF
Assay type: biochemical
Settings: read-out: IC50, inhibition of H. influenzae PDF activity

Row | SMILES | pIC50
1 | O=CN(O)C[C@@H](CC1CCCC1)C(=O)NNc1nc(Cl)nc(N2CCN3CCCCC3C2)c1F (mixture of isomers) [Example 112, N-[(2R)-3-{2-[2-Chloro-5-fluoro-6-(octahydro-2H-pyrido[1,2-a]pyrazin-2-yl)-4-pyrimidinyl]hydrazino}-2-(cyclopentylmethyl)-3-oxopropyl]-N-hydroxyformamide] | ≥ 7.00
2 | Cc1nc(NNC(=O)[C@H](CC2CCCC2)CN(O)C=O)c(F)c(N2CC(N(C)C)C(C)(C)C2)n1 (mixture of isomers) [Example 129, [(2R)-2-(Cyclopentylmethyl)-3-(2-{6-[4-(dimethylamino)-3,3-dimethyl-1-pyrrolidinyl]-5-fluoro-2-methyl-4-pyrimidinyl}hydrazino)-3-oxopropyl]hydroxyformamide] | ≥ 7.00
3 | O=CN(O)C[C@@H](CC1CCCC1)C(=O)NNc1nc(Cl)nc(N2CC(O)C3(CC3)C2)c1F (mixture of isomers) [Example 130, [(2R)-3-{2-[2-Chloro-5-fluoro-6-(7-hydroxy-5-azaspiro[2.4]hept-5-yl)-4-pyrimidinyl]hydrazino}-2-(cyclopentylmethyl)-3-oxopropyl]hydroxyformamide] | ≥ 7.00
4 | CN(C)C1CN(c2nc(Cl)nc(NNC(=O)[C@H](CC3CCCC3)CN(O)C=O)c2F)CC1(C)C (mixture of isomers) [Example 133, [(2R)-3-(2-{2-Chloro-6-[4-(dimethylamino)-3,3-dimethyl-1-pyrrolidinyl]-5-fluoro-4-pyrimidinyl}hydrazino)-2-(cyclopentylmethyl)-3-oxopropyl]hydroxyformamide] | ≥ 7.00
5 | CSc1nc(NNC(=O)[C@H](CC2CCCC2)CN(O)C=O)c(F)c(N2CCC3CCCCC3C2)n1 (mixture of isomers) [Example 134, ((2R)-2-(Cyclopentylmethyl)-3-{2-[5-fluoro-2-(methylthio)-6-(octahydro-2(1H)-isoquinolinyl)-4-pyrimidinyl]hydrazino}-3-oxopropyl)hydroxyformamide] | ≥ 7.00
6 | CCc1nc(NNC(=O)[C@H](CC2CCCC2)CN(O)C=O)c(F)c(N2CC(N(C)C)C3(CC3)C2)n1 (mixture of isomers) [Example 135, [(2R)-2-(Cyclopentylmethyl)-3-(2-{6-[7-(dimethylamino)-5-azaspiro[2.4]hept-5-yl]-2-ethyl-5-fluoro-4-pyrimidinyl}hydrazino)-3-oxopropyl]hydroxyformamide] | ≥ 7.00
7 | CN(C)C1CN(c2nc(Cl)nc(NNC(=O)[C@H](CC3CCCC3)CN(O)C=O)c2F)CC12CC2 (mixture of isomers) [Example 136, [(2R)-3-(2-{2-Chloro-6-[7-(dimethylamino)-5-azaspiro[2.4]hept-5-yl]-5-fluoro-4-pyrimidinyl}hydrazino)-2-(cyclopentylmethyl)-3-oxopropyl]hydroxyformamide] | ≥ 7.00
8 | CC1(O)CCN(c2nc(Cl)nc(NNC(=O)[C@H](CC3CCCC3)CN(O)C=O)c2F)C1 (mixture of isomers) [Example 140, [(2R)-3-{2-[2-Chloro-5-fluoro-6-(3-hydroxy-3-methyl-1-pyrrolidinyl)-4-pyrimidinyl]hydrazino}-2-(cyclopentylmethyl)-3-oxopropyl]hydroxyformamide] | ≥ 7.00
9 | CN(C)C1CCN(c2nc(Cl)nc(NNC(=O)[C@H](CC3CCCC3)CN(O)C=O)c2F)C1(C)C (mixture of isomers) [Example 152, [(2R)-3-(2-{2-Chloro-6-[3-(dimethylamino)-2,2-dimethyl-1-pyrrolidinyl]-5-fluoro-4-pyrimidinyl}hydrazino)-2-(cyclopentylmethyl)-3-oxopropyl]hydroxyformamide] | ≥ 7.00
10 | Cc1nc(NNC(=O)[C@H](CC2CCCC2)CN(O)C=O)c(F)c(N2CCC(c3cccnc3)C2)n1 (mixture of isomers) [Example 153, [(2R)-2-(Cyclopentylmethyl)-3-(2-{5-fluoro-2-methyl-6-[3-(3-pyridinyl)-1-pyrrolidinyl]-4-pyrimidinyl}hydrazino)-3-oxopropyl]hydroxyformamide] | ≥ 7.00
11 | CSc1nc(NNC(=O)[C@H](CC2CCCC2)CN(O)C=O)c(F)c(N2CCOC(CO)C2)n1 (mixture of isomers) [Example 154, ((2R)-2-(Cyclopentylmethyl)-3-{2-[5-fluoro-6-[2-(hydroxymethyl)-4-morpholinyl]-2-(methylthio)-4-pyrimidinyl]hydrazino}-3-oxopropyl)hydroxyformamide] | ≥ 7.00
12 | CN(C)CC(C)(C)C1CCN(c2nc(Cl)nc(NNC(=O)[C@H](CC3CCCC3)CN(O)C=O)c2F)C1 (mixture of isomers) [Example 197, [(2R)-3-[2-(2-Chloro-6-{3-[2-(dimethylamino)-1,1-dimethylethyl]-1-pyrrolidinyl}-5-fluoro-4-pyrimidinyl)hydrazino]-2-(cyclopentylmethyl)-3-oxopropyl]hydroxyformamide] | ≥ 7.00
13 | Cc1nc(NNC(=O)[C@H](CC2CCCC2)CN(O)C=O)c(F)c(N2CCC2C)n1 (mixture of isomers) [Example 265, ((2R)-2-(Cyclopentylmethyl)-3-{2-[5-fluoro-2-methyl-6-(2-methyl-1-azetidinyl)-4-pyrimidinyl]hydrazino}-3-oxopropyl)hydroxyformamide] | ≥ 7.00
14 | CC1CCN1c1nc(Cl)nc(NNC(=O)[C@H](CC2CCCC2)CN(O)C=O)c1F (mixture of isomers) [Example 266, [(2R)-3-{2-[2-Chloro-5-fluoro-6-(2-methyl-1-azetidinyl)-4-pyrimidinyl]hydrazino}-2-(cyclopentylmethyl)-3-oxopropyl]hydroxyformamide] | ≥ 7.00
15 | Cc1nc(NNC(=O)[C@H](CC2CCCC2)CN(O)C=O)c(F)c(N2C[C@H](C)[C@@H](N(C)C)C2)n1 (racemic) [Example 89, [(2R)-2-(Cyclopentylmethyl)-3-(2-{6-[(trans)-3-(dimethylamino)-4-methyl-1-pyrrolidinyl]-5-fluoro-2-methyl-4-pyrimidinyl}hydrazino)-3-oxopropyl]hydroxyformamide] | ≥ 7.00
16 | Cc1nc(NNC(=O)[C@H](CC2CCCC2)CN(O)C=O)c(F)c(N2C[C@H](C(=O)N(C)C)[C@@H](C)C2)n1 (racemic) [Example 90, (trans)-1-{6-[2-((2R)-3-Cyclopentyl-2-{[formyl(hydroxy)amino]methyl}propanoyl)hydrazino]-5-fluoro-2-methyl-4-pyrimidinyl}-N,N,4-trimethyl-3-pyrrolidinecarboxamide] | ≥ 7.00
17 | CN1C[C@@H]2CN(c3nc(Cl)nc(NNC(=O)[C@H](CC4CCCC4)CN(O)C=O)c3F)C[C@@H]2C1(C)C (racemic) [Example 184, [(2R)-3-{2-[2-Chloro-5-fluoro-6-(4,4,5-trimethylhexahydropyrrolo[3,4-c]pyrrol-2(1H)-yl)-4-pyrimidinyl]hydrazino}-2-(cyclopentylmethyl)-3-oxopropyl]hydroxyformamide] | ≥ 7.00
18 | C[C@H]1CN(c2nc(Cl)nc(NNC(=O)[C@H](CC3CCCC3)CN(O)C=O)c2F)C[C@@H]1N(C)C (relative stereo) [Example 138, [(2R)-3-(2-{2-Chloro-6-[(trans)-3-(dimethylamino)-4-methyl-1-pyrrolidinyl]-5-fluoro-4-pyrimidinyl}hydrazino)-2-(cyclopentylmethyl)-3-oxopropyl]hydroxyformamide] | ≥ 7.00
19 | Cc1nc(NNC(=O)[C@H](CC2CCCC2)CN(O)C=O)c(F)c(N2C[C@@H](O)[C@@H](C)C2)n1 (single isomer, unassigned) [Example 114] | ≥ 7.00
